Reference: patent publication US20210403601A1 (FAPON BIOTECH, published 2021)
Numbering of substitutions follows the chain as printed. These are yes or no findings as the source states them, for the method shown. Some binding calls cover weakened binding; strength is not graded here.

The chains behind the UniProt entries cited, without tags or fusion partners.
UniProt P19821: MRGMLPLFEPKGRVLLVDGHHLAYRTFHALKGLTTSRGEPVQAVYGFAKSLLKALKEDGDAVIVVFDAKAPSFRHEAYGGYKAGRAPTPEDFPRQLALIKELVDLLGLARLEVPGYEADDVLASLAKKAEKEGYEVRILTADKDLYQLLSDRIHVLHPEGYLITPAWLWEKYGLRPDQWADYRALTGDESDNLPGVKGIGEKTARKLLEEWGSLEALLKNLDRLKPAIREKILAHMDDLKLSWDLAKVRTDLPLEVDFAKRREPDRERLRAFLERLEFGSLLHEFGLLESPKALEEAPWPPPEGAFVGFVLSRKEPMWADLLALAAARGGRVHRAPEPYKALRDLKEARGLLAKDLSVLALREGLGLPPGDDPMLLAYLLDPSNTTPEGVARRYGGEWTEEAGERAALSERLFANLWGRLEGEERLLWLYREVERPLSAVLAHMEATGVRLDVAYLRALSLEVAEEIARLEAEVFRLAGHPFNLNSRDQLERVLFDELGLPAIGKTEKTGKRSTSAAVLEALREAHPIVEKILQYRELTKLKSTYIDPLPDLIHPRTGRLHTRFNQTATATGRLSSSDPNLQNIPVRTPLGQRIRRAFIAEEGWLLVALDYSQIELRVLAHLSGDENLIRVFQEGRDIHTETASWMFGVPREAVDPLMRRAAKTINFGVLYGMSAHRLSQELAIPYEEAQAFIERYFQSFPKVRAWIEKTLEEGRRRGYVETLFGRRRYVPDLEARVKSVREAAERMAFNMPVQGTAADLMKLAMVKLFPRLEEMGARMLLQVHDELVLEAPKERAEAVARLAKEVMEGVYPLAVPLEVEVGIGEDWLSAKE

B1: Anti-Taq 2C7 recombinant antibody (WT) (antibody, mouse IgG1, kappa, V domains shown)
VH: QVQLQQPGAELVKPGASVRLSCQTSVDTFSTYYLYWVKQRPGEGLEWIGGVNPTSNPVFDEKFKSKATLTVDTSSSTAYMQLSSLTSVDSAVYYCTRSILRRGYYPDYWGQGTALTVSS
VL: DIQMTQTTSSLSASLGDRVTISCRGSQDIQNYVNWYQQKPDGTIKLLIYFTSRLQSGIPSRFSGSGSGTDYSLTIANLEQEDIATYFCQQDDTIPVTWGAGTKVELKR
notes: Mouse antibody expressed in CHO cells; also called WT antibody; antibody of sample 1
B2: Mutation 1 (antibody, V domains shown)
VH: B1 VH with L34I, D60N, P106F
VL: B1 VL with G25A, F50Y, W98F
notes: also called mutation 1 antibody

Experiments:
Taq DNA polymerase [1] = molecular target: T1, Taq DNA polymerase (Thermus aquaticus, UniProt P19821 1-832); test: ELISA on coated Taq, CHO supernatant
T1 construct: also called Taq enzyme; Taq DNA enzyme

Taq DNA polymerase [2] = molecular target: T1, Taq DNA polymerase; test: ELISA and AMC sensor (Tables 2 and 3)

Row | Binder | binding (Taq DNA polymerase [1]) | binding (Taq DNA polymerase [2])
1 | B1 | binds | –
2 | B2 | – | binds
